Assay results: publication doi:10.1101/2021.07.16.452595
Results are given in words; binding and its absence hold for the method and conditions named. In cells and extracts the contact can be indirect. Some results given as binding are weak or reduced against the parent protein; the word gives no strength.

The chains behind the UniProt entries cited, without tags or fusion partners. Residues count along the entry.
UniProt Q03137, residues 20-986: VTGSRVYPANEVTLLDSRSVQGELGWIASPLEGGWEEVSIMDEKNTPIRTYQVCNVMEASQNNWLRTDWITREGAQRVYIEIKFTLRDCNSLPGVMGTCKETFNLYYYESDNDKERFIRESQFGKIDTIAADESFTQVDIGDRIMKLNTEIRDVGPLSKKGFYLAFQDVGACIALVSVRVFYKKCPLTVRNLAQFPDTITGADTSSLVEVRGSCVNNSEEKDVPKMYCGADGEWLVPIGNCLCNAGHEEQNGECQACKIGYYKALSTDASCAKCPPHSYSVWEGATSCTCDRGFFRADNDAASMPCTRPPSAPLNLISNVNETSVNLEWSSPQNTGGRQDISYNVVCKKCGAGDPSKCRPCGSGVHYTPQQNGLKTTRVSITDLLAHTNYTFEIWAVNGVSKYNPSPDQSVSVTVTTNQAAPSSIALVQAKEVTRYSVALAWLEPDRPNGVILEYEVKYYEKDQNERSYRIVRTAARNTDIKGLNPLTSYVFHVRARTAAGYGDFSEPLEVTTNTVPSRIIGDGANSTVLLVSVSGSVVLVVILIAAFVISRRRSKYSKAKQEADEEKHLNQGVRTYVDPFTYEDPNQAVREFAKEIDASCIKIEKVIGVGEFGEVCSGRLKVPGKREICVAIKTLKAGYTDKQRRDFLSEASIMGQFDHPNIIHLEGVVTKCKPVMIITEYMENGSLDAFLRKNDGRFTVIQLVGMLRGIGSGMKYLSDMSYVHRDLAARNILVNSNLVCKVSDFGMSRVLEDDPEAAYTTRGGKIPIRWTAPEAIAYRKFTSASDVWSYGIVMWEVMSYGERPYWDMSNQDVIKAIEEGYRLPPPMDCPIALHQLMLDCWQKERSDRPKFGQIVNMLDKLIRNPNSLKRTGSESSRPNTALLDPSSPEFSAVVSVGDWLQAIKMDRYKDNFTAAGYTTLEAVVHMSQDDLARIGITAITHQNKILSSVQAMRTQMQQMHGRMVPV

Biological target: EphA4 (tyrosine kinase receptor EphA4), endogenous in mouse amygdala (mouse (endogenous in amygdala)) (UniProt Q03137)
Experiment: co-IP

B1: gephyrin, endogenous in mouse amygdala (protein, UniProt Q8BUV3 1-769)
chain: MATEGMILTNHDHQIRVGVLTVSDSCFRNLAEDRSGINLKDLVQDPSLLGGTISAYKIVPDEIEEIKETLIDWCDEKELNLILTTGGTGFAPRDVTPEATKEVIEREAPGMALAMLMGSLNVTPLGMLSRPVCGIRGKTLIINLPGSKKGSQECFQFILPALPHAIDLLRDAIVKVKEVHDELEDLPSPPPPLSPPPTTSPHKQTEDKGVQCEEEEEEKKDSGVASTEDSSSSHITAAALAAKIPDSIISRGVQVLPRDTASLSTTPSESPRAQATSRLSTASCPTPKQIRRPDESKGVASRVGSLKARLPSCSSTYSVSEVQSRCSSKENILRASHSAVDITKVARRHRMSPFPLTSMDKAFITVLEMTPVLGTEIINYRDGMGRVLAQDVYAKDNLPPFPASVKDGYAVRAADGPGDRFIIGESQAGEQPTQTVMPGQVMRVTTGAPIPCGADAVVQVEDTELIRESDDGTEELEVRILVQARPGQDIRPIGHDIKRGECVLAKGTHMGPSEIGLLATVGVTEVEVNKFPVVAVMSTGNELLNPEDDLLPGKIRDSNRSTLLATIQEHGYPTINLGIVGDNPDDLLNALNEGISRADVIITSGGVSMGEKDYLKQVLDIDLHAQIHFGRVFMKPGLPTTFATLDIDGVRKIIFALPGNPVSAVVTCNLFVVPALRKMQGILDPRPTIIKARLSCDVKLDPRPEYHRCILTWHHQEPLPWAQSTGNQMSSRLMSMRSANGLLMLPPKTEQYVELHKGEVVDVMVIGRL
For B1, the binding was “binds”.
